Experimental data from US5962415A, “Compositions comprising a peptide inhibitor of nuclear protein translocation and an immunosuppressant and methods of use thereof” (Bristol-Myers Squibb Co., priority 1998, dated 1999).
At least one peptide structure holds a part that was inferred or is arguable (an end, a ring closure or a residue). Where no end group is shown, it is not given here.

Assays:
[1] = system: BALB/c mice immunized with KLH; assay: Anti-hemocyanin (KLH) response in mice; format: in vivo; conditions: 5 mg/kg day 0 plus 5 doses every other day, serum day 14, FIG. 12
Description: Female BALB/c mice (8 weeks of age) were immunized by intraperitoneal injection of 25 μg keyhole limpet (Megathura crenulata) hemocyanin ("KLH") (Pacific Bio-Marine Laboratories, Venice, Calif.) without adjuvant on day 0. Mice were divided into groups of five and inhibitory peptides C-MYCMEM and BMS-205820 ([…] (SEQ ID NO:24)), which is identical to the SV40MEM polypeptide with the exception that the polypeptide lacks the C-terminal cysteine, were administered on day 0 at 5 mg/kg, followed by 5 subsequent doses of the same concentration every other day. Control mice were treated with a single 200-μg dose of Chimeric L6 antibody ("Chi L6"). After 14 days, the mice were bled from the orbital sinus and the level of anti-KLH antibodies were measured in the serum by ELISA as described in Example 11.

[2] = system: Balb/c mice injected with LPS; assay: Lethal model of septic shock, pretreatment (LPS injection); format: in vivo; conditions: 5 mg/kg IV at 1 and 3 hours prior to LPS, immediately after and 24 hours after, 200 mg LPS ip
[3] = system: Balb/c mice treated with LPS; assay: Lethal model of septic shock, delayed treatment; format: in vivo
[4] = system: Balb/c mice treated with LPS; assay: Cytokine production in vivo, non-lethal model of septic shock; conditions: 1 μg LPS, single dose 3 mg/kg
[5] = system: CD14; assay: LPS binding to CD14 (plate assay with soluble CD14 Ig); conditions: E. coli AO16 LPS, 2 hours at 4° C., FIG. 14
Description: 96-well plates were coated with goat-anti human Ig, soluble CD-1 4 Ig was added, and the plates were incubated overnight at 4° C. The BMS polypeptide, the C-MYCMEM polypeptide, an SV40 NLS polypeptide containing a single SV40 large T-antigen NLS, a c-myc NLS without a translocation sequence (AKRVKL (SEQ ID NO:6)), a control non-NLS polypeptide, 377G, or PBS, were added to the plates and the plates were incubated for 5 min. E. coli AO16 LPS was then added to the plates and the plates were incubated for 2 hours at 4° C. The plates were washed and LPS was detected using 0.5 μg/ml mouse anti-E. coli LPS, followed by goat anti-mouse horseradish peroxidase.

[6] = system: Balb/c mice administered ovalbumin; assay: Mouse model of asthma (ovalbumin), eosinophils in lung; format: in vivo; conditions: 3 mg/kg, sacrifice at day 18, FIG. 15B
[7] = system: Human peripheral blood lymphocytes; assay: Human peripheral blood T-cell proliferation; format: cell-based

PKKKRKVAAVALLPAVLLALLAPKKKRKV [BMS-205820]
specific anti-KLH response [1]: inhibited
Fraction of Mice Surviving Seven Days Post LPS Injection ([2]; Experiment 1): 6/10
Fraction of Mice Surviving Seven Days Post LPS Injection ([2]; Experiment 2): 10/10
Fraction Surviving, Group A ([3]; 5 mg/kg IV at T = 0 post-LPS (200 μg ip)): 5/5
Fraction Surviving, Group B ([3]; 5 mg/kg IV at T = 0 post-LPS plus additional dose 3 hours post-LPS): 5/5
Fraction Surviving, Group A ([3]; 5 mg/kg IV at T = 30 min. post-LPS): 1/5
Fraction Surviving, Group B ([3]; 5 mg/kg IV at T = 30 min. post-LPS plus additional dose 3 hours post-LPS): 5/5
Fraction Surviving, Group A ([3]; 5 mg/kg IV at T = 1 hr. post-LPS): 2/5
Fraction Surviving, Group B ([3]; 5 mg/kg IV at T = 1 hr. post-LPS plus additional dose 3 hours post-LPS): 5/5
Fraction Surviving, Group A ([3]; 5 mg/kg IV at T = 1.5 hr. post-LPS): 1/5
Fraction Surviving, Group B ([3]; 5 mg/kg IV at T = 1.5 hr. post-LPS plus additional dose 3 hours post-LPS): 4/5
Fraction Surviving, Group A ([3]; 5 mg/kg IV at T = 2 hr. post-LPS): 0/5
Fraction Surviving, Group B ([3]; 5 mg/kg IV at T = 2 hr. post-LPS plus additional dose 3 hours post-LPS): 0/5
production of TNF-α in vivo (serum) ([4]; FIG. 13A): significant inhibition
IL-6 levels in vivo (serum) ([4]; FIG. 13B): only slightly affected
IL-10 production in vivo (serum) ([4]; FIG. 13C): greatly increased
binding of LPS to CD14 [5]: block it from binding CD14
infiltration of eosinophils into the lungs [6]: significantly inhibited
proliferation, single agent ([7]; activated with CD3×CD28, one hour pretreatment, FIG. 17): did not stimulate proliferation
proliferation, single agent ([7]; stimulated through PMA×CD28, one hour pretreatment): inhibition of proliferation
